Results are given in words; binding and its absence hold for the method and conditions named. Some results given as binding are weak or reduced against the parent protein; the word gives no strength.
Biological target: T1, WRB-Cub-LexA (split-ubiquitin bait) (UniProt O00258)
T1 sequence: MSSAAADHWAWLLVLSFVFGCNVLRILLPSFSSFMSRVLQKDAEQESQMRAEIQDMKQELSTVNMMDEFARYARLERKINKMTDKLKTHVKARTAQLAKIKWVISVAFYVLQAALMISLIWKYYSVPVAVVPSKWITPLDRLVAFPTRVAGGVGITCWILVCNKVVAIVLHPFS
Experiment: two-hybrid; split-ubiquitin yeast two-hybrid in S. cerevisiae NMY51; WRB-Cub-LexA bait, N-ubiquitin-tagged preys; serial dilutions spotted on HC-ura-trp or HC-ura-trp-his plates

By UniProt entry, the sequences of proteins in these tests, tags left out.
UniProt P49069: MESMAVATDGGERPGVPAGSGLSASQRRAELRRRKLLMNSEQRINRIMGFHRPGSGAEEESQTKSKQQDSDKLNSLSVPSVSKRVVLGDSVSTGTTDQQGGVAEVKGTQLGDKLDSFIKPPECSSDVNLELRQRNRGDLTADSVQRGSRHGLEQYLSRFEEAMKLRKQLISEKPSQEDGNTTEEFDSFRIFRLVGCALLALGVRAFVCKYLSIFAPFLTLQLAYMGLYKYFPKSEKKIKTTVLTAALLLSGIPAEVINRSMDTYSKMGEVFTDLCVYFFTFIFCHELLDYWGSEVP
UniProt P40056: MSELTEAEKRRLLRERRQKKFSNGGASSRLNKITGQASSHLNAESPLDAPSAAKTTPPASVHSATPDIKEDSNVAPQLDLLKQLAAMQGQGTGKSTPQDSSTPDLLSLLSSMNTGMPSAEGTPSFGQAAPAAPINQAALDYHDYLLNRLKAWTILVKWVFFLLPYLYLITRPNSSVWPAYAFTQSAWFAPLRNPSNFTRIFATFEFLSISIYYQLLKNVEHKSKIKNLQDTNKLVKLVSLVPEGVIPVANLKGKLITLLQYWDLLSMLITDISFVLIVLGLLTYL

binding	Substance
binds	CAML, N-ubiquitin-tagged (split-ubiquitin prey) (from UniProt P49069 1-296)
no binding	Get2, N-ubiquitin-tagged (split-ubiquitin prey) (from UniProt P40056 1-285)

From paper PMC3879356
